Source: patent US12728120B2, “Prevention or treatment of brain disease and adverse effects of cholinesterase inhibitors” (DR. NOAH BIOTECH INC., priority 2021, dated 2026)
Structures can show the parent of a compound that is named as a salt.

Key:
IL-6 = IL-6 ELISA in LPS-treated BV2 microglial cells; assay type: cell-based, mouse; conditions: BV2, 1 μg/ml LPS, 18 hours; FIG. 4
Procedure: Briefly, BV2 microglial cells were plated in 96-well plates at 2×10^5 cells/well in DMEM high glucose medium (Welgene, LM001-05) supplemented with 10% fetal bovine serum (FBS; YOUNG IN, US-FBS-500) and 1% penicillin-streptomycin (P-S; Gibco, 15070063).

ERK pathway = assay: pERK expression in brain (western blot), MCAO-reperfusion model; assay type: in vivo, Sprague-Dawley rats
Procedure: (§1) At 21 days after 45-minutes-MCAO-reperfusion modeling, brains were collected to perform a western blot assay. Brains were homogenized in lysate buffer with protease inhibitor cocktail on ice. Each sample was centrifuged at 13,000 rpm and 4° C. for 30 minutes and the supernatant was used for further experiments. Protein concentration was measured using DC (Bio-rad, #5000112) protein assay. Samples were loaded using the SDS-PAGE system (Bio-rad, #1658004 and #1645052) and transferred onto nitrocellulose membranes (Bio-rad, #17001917 and #1704272). The membranes were blocked for 1 hour at room temperature with Tris-buffered saline-Tween20 (TBS-T) containing 5% skim milk and then incubated with pAKT antibody (Cell signaling, #4060), AKT primary antibody (Santacruz, SC-81434), EPO primary antibody (SCBT, SC-5290), ERK (CST, #9102), pERK (CST, #9101) and GAPDH (Bioworld, #MBOO1H) in 5% skim milk overnight at 4° C. Next day, the membranes were washed 3 times in TBS-T for 5 minutes, incubated with horseradish peroxidase-conjugated (HRP-conjugated) secondary antibody or fluorescence conjugated secondary antibody for 1-2 hours, and then washed 3 times in TBS-T for 5 minutes again. After final wash, the membranes were developed for chemiluminescence or fluorescence system. The signals of chemiluminescence or fluorescence were acquired and quantified by using ECL solution (Bio-rad, #1705062), iBright 1500 (Invitrogen, #CL1500), and Odyssey CLx (LI-COR, #CLX-2383) imaging system.

[1] = system: ReN VM-immortalized cells, human neural progenitor cell line; assay: HB9 motor neuron marker expression in neural progenitor cells (differentiation); assay type: cell-based; conditions: alone or combined, 3 days
Procedure: ReN VM-immortalized cells, human neural progenitor cell line, were used (EMD Millipore, SCC008). These neural progenitor cells can differentiate into motor neurons and glial cells. The degree of differentiation of neural progenitor cells into motor neurons was determined by analysing the level of HB9, a specific motor neuron marker. ReN VM cells were cultured on laminin (Corning, 354232)-coated 75T Flask in the growth medium, which is DMEM/F12 (Welgene, #LM002-08) supplemented with 20 ng/ml basic fibroblast growth factor (bFGF; Gibco, 15750-060), 20 ng/ml epidermal growth factor (EGF; Sigma, E9644), serum-free B27 (Gibco, 17504-044), 10 KU heparin (Sigma, H3393), and 1% gentamicin (Gibco, 17504-044). Cells were plated in 96-well plates at 7000 cells/well in the growth media in a 37° C./5% CO2 incubator for 3 days. […] Immunostaining was performed against HB9, a specific motor neuronal marker, to assess the population of motor neurons. Briefly, drug-treated ReN VM cells were fixed in 10% formalin solution for 20 minutes and permeabilized in 0.1% TritonX-100. […] Fluorescence intensity levels were measured using an Odyssey® DLx Infrared Imaging System (LI-COR, CLS-2383). All data were analyzed using the GraphPad Prism 9 software. Statistical significance was assessed using a one-way ANOVA or two-way ANOVA followed by Dunnett's post-hoc analysis unless otherwise noted. […]

PI3K-AKT pathway = assay: pAKT expression in brain (western blot), MCAO-reperfusion model; assay type: in vivo, Sprague-Dawley rats
Procedure: as §1

EPO = EPO expression in brain (western blot), MCAO-reperfusion model; assay type: in vivo, Sprague-Dawley rats; conditions: 21 days after MCAO
Procedure: At 21 days after 45-minutes-MCAO (middle cerebral artery occlusion)-reperfusion modeling, brains were collected to perform the western blot assay. Brains were homogenized in lysate buffer with protease inhibitor cocktail on ice. Each sample was then centrifuged at 13,000 rpm and 4° C. for 30 minutes and the supernatant was used for further experiments. Protein concentration was measured using DC (Bio-rad, #5000112) protein assay. Samples were loaded using the SDS-PAGE system (Bio-rad, #1658004 and #1645052) and transferred onto nitrocellulose membranes (Bio-rad, #17001917 and #1704272). […] Next day, the membranes were washed 3 times in TBS-T for 5 minutes, incubated with horseradish peroxidase-conjugated (HRP-conjugated) secondary antibody or fluorescence conjugated secondary antibody for 1-2 hours, and then washed 3 times in TBS-T for 5 minutes again. After final wash, the membranes were developed for chemiluminescence or fluorescence system. The signals of chemiluminescence or fluorescence were acquired and quantified by using ECL solution (Bio-rad, #1705062), iBright 1500 (Invitrogen, #CL1500), and Odyssey CLx (LI-COR, #CLX-2383) imaging system.

[2] = 1 mpk donepezil HCl or 120 mpk NAC used alone, FIG. 17
[3] = brain, 21 days after MCAO, 1 mpk donepezil HCl, 120 mpk NAC, alone or combined

For `COc1cc2c(cc1OC)C(=O)C(CC1CCN(Cc3ccccc3)CC1)C2` (centres unmarked) [Donepezil-HCl, donepezil], the “IL-6, mean value relative to LPS (100%)” value (IL-6) was 65.12%, the “activation of the ERK pathway” value (ERK pathway; [2]) was “did not activate” and the “pERK expression normalized to VEH (100%)” value (ERK pathway; [3]) was 151.96%. For the same compound, the “pERK expression, mean value” (ERK pathway; brain, 21 days after MCAO, 1 mpk donepezil HCl, 120 mpk NAC, alone or combined, FIG. 17B) was 79.67, the “HB9 expression level, mean value relative to CTL (100%)” value ([1]; donepezil 0.1 μM, NAC 12 μM, FIG. 9A) was 119.81% and the “HB9 expression level, mean value relative to CTL (100%)” value ([1]; donepezil 1 μM, NAC 120 μM, FIG. 9B) was 119.25%. The “activation of the PI3K-AKT pathway” value (PI3K-AKT pathway; [2]) was “did not activate”, the “pAKT expression normalized to VEH (100%)” value (PI3K-AKT pathway; [3]) was 388.48% and the “pAKT expression, mean value” (PI3K-AKT pathway; brain, 21 days after MCAO, 1 mpk donepezil HCl, 120 mpk NAC, alone or combined, FIG. 17A) was 307.50. For the same compound, the “EPO expression normalized to VEH (100%)” value (EPO) was 114.38% and the “EPO expression, mean value” (EPO; FIG. 18) was 130.04.
